Measured values from publication PMC11058652.
These are yes or no findings as the source states them, for the method shown. Binding seen in cells or lysates may run through a third protein. Some results given as binding are weak or reduced against the parent protein; the word gives no strength.

Legend:
[1] = molecular target: Flag-tagged Poly (rC)-binding protein 1, full length (human) (UniProt Q15365); experiment: co-IP; PCBP1 with Tax WT, M22 and M47; details only in Supplementary Figure 3 (not shown)
[2] = molecular target: Flag-tagged Poly (rC)-binding protein 1, full length (human) (UniProt Q15365); experiment: co-IP; HEK293T co-transfected with HA-Tax and Flag-PCBP1 for 24 h; RIPA lysate; IP with Flag antibody and Protein G agarose; blot with HA and Flag antibodies
[3] = molecular target: HA-tagged HTLV-1 Tax (HTLV-1) (UniProt P03409); experiment: co-IP; HEK293T transfected with HA-Tax, with or without Flag-PCBP1, or HEK293T stably expressing shNC or shPCBP1 transfected with HA-Tax; IP with HA antibody and Protein G; blots for endogenous IKKα, IKKβ and NEMO
[4] = molecular target: HA-tagged HTLV-1 Tax (HTLV-1) (UniProt P03409); experiment: co-IP; HEK293T co-transfected with HA-Tax and Flag-PCBP1 for 24 h; RIPA lysate; IP with HA antibody and Protein G agarose; blot with HA and Flag antibodies
[5] = molecular target: Poly (rC)-binding protein 1, endogenous in HTLV-1-transformed cells (human (endogenous in MT2 and MT4)) (UniProt Q15365); experiment: co-IP; endogenous proteins; lysates of MT2 and MT4 cells; IP with PCBP1 antibody or IgG and Protein G; blots for Tax and PCBP1 (MT2, MT4) and for IKKα and IKKβ (MT2)

**Q.** Which results are given for “HA-tagged HTLV-1 Tax (from UniProt P03409 1-353)”?
**A.** binding [1]: binds; binding [2]: binds

**Q.** “NEMO, endogenous (from UniProt Q9Y6K9 1-419)” was tested. Which binding [3] did it give?
**A.** binds

**Q.** For “Flag-tagged Poly (rC)-binding protein 1, full length (from UniProt Q15365 1-356)”, which binding [4] is on record?
**A.** binds

**Q.** With “HTLV-1 Tax, endogenous in HTLV-1-transformed cells (from UniProt P03409 1-353)” as the molecule, how does the binding [5] read?
**A.** binds

B1: IKKβ, endogenous (protein, UniProt O14920 1-756)
chain: MSWSPSLTTQTCGAWEMKERLGTGGFGNVIRWHNQETGEQIAIKQCRQELSPRNRERWCLEIQIMRRLTHPNVVAARDVPEGMQNLAPNDLPLLAMEYCQGGDLRKYLNQFENCCGLREGAILTLLSDIASALRYLHENRIIHRDLKPENIVLQQGEQRLIHKIIDLGYAKELDQGSLCTSFVGTLQYLAPELLEQQKYTVTVDYWSFGTLAFECITGFRPFLPNWQPVQWHSKVRQKSEVDIVVSEDLNGTVKFSSSLPYPNNLNSVLAERLEKWLQLMLMWHPRQRGTDPTYGPNGCFKALDDILNLKLVHILNMVTGTIHTYPVTEDESLQSLKARIQQDTGIPEEDQELLQEAGLALIPDKPATQCISDGKLNEGHTLDMDLVFLFDNSKITYETQISPRPQPESVSCILQEPKRNLAFFQLRKVWGQVWHSIQTLKEDCNRLQQGQRAAMMNLLRNNSCLSKMKNSMASMSQQLKAKLDFFKTSIQIDLEKYSEQTEFGITSDKLLLAWREMEQAVELCGRENEVKLLVERMMALQTDIVDLQRSPMGRKQGGTLDDLEEQARELYRRLREKPRDQRTEGDSQEMVRLLLQAIQSFEKKVRVIYTQLSKTVVCKQKALELLPKVEEVVSLMNEDEKTVVRLQEKRQKELWNLLKIACSKVRGPVSGSPDSMNASRLSQPGQLMSQPSTASNSLPEPAKKSEELVAEAHNLCTLLENAIQDTVREQDQSFTALDWSWLQTEEEEHSCLEQAS
**Q.** B1 was tested. Which binding [3] did it give?
**A.** binds
